{
  "source": "patent US9185910B2",
  "about": "“Amide compound” (Sumitomo Chemical Company, Limited, priority 2012, dated 2015)",
  "assay_type_in_all_cases": "in vivo",
  "key": {"Aphis gossypii [1]": {"test_system": "Aphis gossypii", "experiment": "Test Example 1: foliar spray on cucumber seedling inoculated with Aphis gossypii", "settings": "500 ppm active ingredient, 20 ml sprayed on cucumber seedling, six days after spraying"}, "Nilaparvata lugens [2]": {"test_system": "Nilaparvata lugens", "experiment": "Test Example 4: drench at foot of rice seedling, Nilaparvata lugens", "settings": "500 ppm, 5 ml drench at foot of rice seedling, larvae released after 7 days, examined after further 6 days"}, "Bemisia tabaci": {"test_system": "Bemisia tabaci", "experiment": "Test Example 5: spray on tomato seedling, Bemisia tabaci instar larvae", "settings": "500 ppm, 20 ml/cup sprayed on tomato seedling, after 7 days"}, "Aphis gossypii [3]": {"test_system": "Aphis gossypii", "experiment": "Test Example 2: drench at foot of cucumber seedling, Aphis gossypii", "settings": "500 ppm, 5 ml drench at foot of cucumber seedling, inoculated after 7 days, examined after further 6 days"}, "Nilaparvata lugens [4]": {"test_system": "Nilaparvata lugens", "experiment": "Test Example 3: spray on rice seedling, Nilaparvata lugens", "settings": "500 ppm, 10 ml sprayed on rice seedling, third-fourth instar larvae, after 6 days"}, "Plutella xylostella": {"test_system": "Plutella xylostella", "experiment": "Test Example 6: spray on cabbage, Plutella xylostella larvae", "settings": "500 ppm, 20 mL/cup sprayed on cabbage, second instar larvae, 25° C. for 5 days"}},
  "note": "Some of these results come from one statement about several compounds together. For part of these data: At least one compound was matched to its structure with a doubt left.",
  "data": [
    {"compound": "CCS(=O)(=O)c1cccnc1C(=O)N(C)c1ccc(C(F)(F)C(F)(F)F)c(Cl)n1", "note": "[compound 112]", "values": [
      {"measurement": "Controlling value (%)", "setting": "Aphis gossypii [1]", "value": "≥ 90", "unit": "%"},
      {"measurement": "Controlling value (%)", "setting": "Nilaparvata lugens [2]", "value": "≥ 90", "unit": "%"},
      {"measurement": "Controlling value (%)", "setting": "Bemisia tabaci", "value": "≥ 90", "unit": "%"}
    ]},
    {"compound": "CCS(=O)(=O)c1cc(N(C)C)cnc1C(=O)N(C)c1ccc(SC(F)(F)F)cc1", "note": "[compound 122]", "values": [
      {"measurement": "Controlling value (%)", "setting": "Aphis gossypii [3]", "value": "≥ 90", "unit": "%"}
    ]},
    {"compound": "CCS(=O)(=O)c1cccnc1C(=O)Nc1ccc(C(F)(F)F)nc1", "note": "[compound 22]", "values": [
      {"measurement": "Controlling value (%)", "setting": "Aphis gossypii [1]", "value": "≥ 90", "unit": "%"},
      {"measurement": "Controlling value (%)", "setting": "Aphis gossypii [3]", "value": "≥ 90", "unit": "%"},
      {"measurement": "Controlling value (%)", "setting": "Nilaparvata lugens [2]", "value": "≥ 90", "unit": "%"},
      {"measurement": "Controlling value (%)", "setting": "Bemisia tabaci", "value": "≥ 90", "unit": "%"}
    ]},
    {"compound": "CCS(=O)(=O)c1cc(N(C)C(C)=O)cnc1C(=O)N(C)c1ccc(SC(F)(F)F)cc1", "note": "[compound 121]", "values": [
      {"measurement": "Controlling value (%)", "setting": "Aphis gossypii [3]", "value": "≥ 90", "unit": "%"},
      {"measurement": "Controlling value (%)", "setting": "Nilaparvata lugens [4]", "value": "≥ 90", "unit": "%"},
      {"measurement": "Controlling value (%)", "setting": "Nilaparvata lugens [2]", "value": "≥ 90", "unit": "%"},
      {"measurement": "Controlling value (%)", "setting": "Bemisia tabaci", "value": "≥ 90", "unit": "%"}
    ]},
    {"compound": "CCS(=O)(=O)c1cccnc1C(=O)Nc1ccc(C(F)(F)F)cn1", "note": "[compound 3]", "values": [
      {"measurement": "Controlling value (%)", "setting": "Aphis gossypii [1]", "value": "≥ 90", "unit": "%"},
      {"measurement": "Controlling value (%)", "setting": "Aphis gossypii [3]", "value": "≥ 90", "unit": "%"},
      {"measurement": "Controlling value (%)", "setting": "Nilaparvata lugens [4]", "value": "≥ 90", "unit": "%"}
    ]},
    {"compound": "CCS(=O)(=O)c1cc(NC(C)=O)cnc1C(=O)N(C)c1ccc(C(F)(F)F)cn1", "note": "[compound 141]", "values": [
      {"measurement": "Controlling value (%)", "setting": "Aphis gossypii [1]", "value": "≥ 90", "unit": "%"},
      {"measurement": "Controlling value (%)", "setting": "Nilaparvata lugens [4]", "value": "≥ 90", "unit": "%"}
    ]},
    {"compound": "CCS(=O)(=O)c1cccnc1C(=O)Nc1ccc(C(F)(F)F)c[n+]1[O-]", "note": "[Compound of Present Invention 6, 3-ethylsulfonyl-N-(1-oxy-5-trifluoromethylpyridin-2-yl)picolinamide]", "values": [
      {"measurement": "Controlling value (%)", "setting": "Aphis gossypii [1]", "value": "≥ 90", "unit": "%"},
      {"measurement": "Controlling value (%)", "setting": "Aphis gossypii [3]", "value": "≥ 90", "unit": "%"},
      {"measurement": "Death rate (%)", "setting": "Plutella xylostella", "value": "≥ 80", "unit": "%"}
    ]},
    {"compound": "CCS(=O)(=O)c1cc(N(S(C)(=O)=O)S(C)(=O)=O)cnc1C(=O)N(C)c1ccc(SC(F)(F)F)cc1", "note": "[compound 130]", "values": [
      {"measurement": "Controlling value (%)", "setting": "Aphis gossypii [1]", "value": "≥ 90", "unit": "%"}
    ]},
    {"compound": "CCS(=O)(=O)c1cc(C(=O)NC)cnc1C(=O)N(C)c1ccc(SC(F)(F)F)cc1", "note": "[compound 128]", "values": [
      {"measurement": "Controlling value (%)", "setting": "Aphis gossypii [1]", "value": "≥ 90", "unit": "%"}
    ]},
    {"compound": "CCS(=O)(=O)c1cc(NC(=O)OC)cnc1C(=O)N(C)c1ccc(SC(F)(F)F)cc1", "note": "[compound 119]", "values": [
      {"measurement": "Controlling value (%)", "setting": "Aphis gossypii [3]", "value": "≥ 90", "unit": "%"},
      {"measurement": "Controlling value (%)", "setting": "Nilaparvata lugens [4]", "value": "≥ 90", "unit": "%"},
      {"measurement": "Controlling value (%)", "setting": "Nilaparvata lugens [2]", "value": "≥ 90", "unit": "%"},
      {"measurement": "Controlling value (%)", "setting": "Bemisia tabaci", "value": "≥ 90", "unit": "%"}
    ]},
    {"compound": "CCSc1cccnc1C(=O)N(C)c1ccc(C(F)(F)C(F)(F)F)c(Cl)n1", "note": "[compound 110]", "values": [
      {"measurement": "Controlling value (%)", "setting": "Aphis gossypii [1]", "value": "≥ 90", "unit": "%"},
      {"measurement": "Controlling value (%)", "setting": "Nilaparvata lugens [4]", "value": "≥ 90", "unit": "%"}
    ]},
    {"compound": "CC[S+]([O-])c1cc(C(F)(F)F)cnc1C(=O)N(C)c1ccc(SC(F)(F)F)cc1", "note": "(stereo not drawn) [compound 109]", "values": [
      {"measurement": "Controlling value (%)", "setting": "Aphis gossypii [1]", "value": "≥ 90", "unit": "%"},
      {"measurement": "Controlling value (%)", "setting": "Aphis gossypii [3]", "value": "≥ 90", "unit": "%"},
      {"measurement": "Controlling value (%)", "setting": "Nilaparvata lugens [4]", "value": "≥ 90", "unit": "%"},
      {"measurement": "Controlling value (%)", "setting": "Nilaparvata lugens [2]", "value": "≥ 90", "unit": "%"},
      {"measurement": "Controlling value (%)", "setting": "Bemisia tabaci", "value": "≥ 90", "unit": "%"}
    ]}
  ]
}
